Reference: PubChem BioAssay AID2685 (National Center for Advancing Translational Sciences (NCATS), 2010)
Some of the results follow. The main result of the screen is listed elsewhere. These columns were measured beside it and carry no call. Compounds called inactive in the main read-out are mostly missing here. Words in brackets tell the shape of the fitted curve; partial curves, single points and poor fits give uncertain potencies.

Experiment: qHTS Assay for Lipid Storage Modulators in Drosophila S3 Cells;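 on cell number change: cells counted by Cell Tracker Red CMTPX staining in the red channel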
Details: BODIPY lipid droplet fluorescence, 18-24 h; for cell number change: measured here: cell count max response, cells fed with added oleic acid
In short: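 Drosophila S3 cells loaded with oleic acid (400 uM, as added) and compounds at several concentrations; lipid droplets imaged by 488-nm laser-scanning cytometry, 500–530 nm intensity and object ratio to cell channel. Percent activity normalized to 20 uM Triacsin C.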

[1] = measured here: lipid fluorescence (Fed channel) AC50, cells fed with added oleic acid
[2] = measured here: cell number channel AC50, cells fed with added oleic acid

Structure (SMILES)	cell number change	AC50 [1]	AC50 [2]
CCc1cc2c(N3CCN(c4nnc(CC)s4)CC3)ncnc2s1	-20.3%	–	–
CC(Sc1nnc(N)s1)C(=O)Nc1ccc2c(c1)OCCO2 (stereo not given)	-9.83%	–	–
FC(F)(F)c1cccc(NC(=S)NCCc2ccccn2)c1	25.1%	29.1 µM [rising, single point]	–
COc1cccc(-c2nn(C)c3sc(C(=O)NCc4ccc(C)cc4)cc23)c1	-6.44%	0.0259 µM [rising, full curve, poor fit]	–
O=C1CC2(CCN(C(=O)c3cccc(Br)c3)CC2)Oc2ccccc21	-10.3%	6.51 µM [rising, single point]	–
COc1ccc(OCCCC(=O)Nc2ccc(S(=O)(=O)N3CCOCC3)cc2)cc1	24.7%	0.103 µM [rising, full curve, poor fit]	–
CC(C)NC(=O)c1ccc(CS(=O)(=O)c2ccc(Br)cc2)o1	-11.4%	0.146 µM [rising, full curve, poor fit]	–
O=C(Nc1ccc(F)cc1)C1CC(=O)n2ncnc2N1 (stereo not given)	-44.1%	5.8 µM [falling, full curve]	5.8 µM [falling, full curve]
CCOc1ccc(NS(=O)(=O)c2ccc3[nH]cc(C(=O)NC(C)CC)c(=O)c3c2)cc1 (stereo not given)	-15.6%	–	–
CN1CCN(c2ccccc2NC(=O)c2ccc(N3CCCCC3)c([N+](=O)[O-])c2)CC1	4.62%	–	–
O=S(=O)(c1ccc2nc(Cc3cccc(C(F)(F)F)c3)[nH]c2c1)N1CCOCC1	-11.9%	13 µM [falling, single point]	–
COc1ccc(S(=O)(=O)N2CCCCCC2)cc1C(=O)Nc1cccc(C)n1	-5.09%	35.5 µM [falling, single point]	–
O=C(CCS(=O)(=O)c1ccccc1)N1CCN(c2ccc(F)cc2)CC1	2.6%	0.651 µM [rising, partial curve, poor fit]	–
CCN(CC(=O)Nc1ccc(OC)c(OC)c1)CC(=O)Nc1ccccc1C(F)(F)F	0.709%	–	–
COc1cc(N2CCCC2)c(OC)cc1/C=C1/NC(=S)NC1=O	-99%	25.9 µM [falling, partial curve, poor fit]	29.1 µM [falling, single point]
CC(C)OCCCNC(=O)CCC(=O)NNc1nc2ccccc2c2nc(-c3ccccc3)nn12	–	0.00461 µM [falling, full curve, poor fit]	–
CC1CCCCC1NC(=O)C1CCN(S(=O)(=O)c2cccc3nonc23)CC1 (stereo not given)	29.7%	9.2 µM [rising, partial curve]	–
CC1CC(=O)Nc2ccccc2S1(=O)=O (stereo not given)	-67.5%	–	11.6 µM [falling, partial curve]
CCOC(=O)c1cnn(-c2cc(C(C)(C)C)nc3c(-c4ccccc4)c(C)nn23)c1N	–	0.58 µM [rising, full curve]	5.8 µM [rising, single point]
CCOC(=O)[C@H]1[C@H]2COc3ccc(Br)cc3[C@@H]2N2C(=O)CN(Cc3ccc(OC)cc3)C(=O)[C@@]12C	-37.4%	–	29.1 µM [falling, single point]
O=C1c2ccccc2C(=O)N1OS(=O)(=O)c1ccc(F)cc1	-8.66%	2.91 µM [falling, partial curve, poor fit]	–

Structure (SMILES)	cell number change	AC50 [1]	AC50 [2]
COCCCNC(=O)CN(Cc1ccc(Cl)cc1)S(C)(=O)=O	-9.31%	0.0058 µM [falling, full curve, poor fit]	–
N#Cc1c(C(F)(F)F)cc(-c2ccco2)nc1SCc1ccncc1	-5.29%	–	–
CSCCC(NC(=O)c1ccco1)C(=O)OCc1cc([N+](=O)[O-])cc2c1OCOC2 (stereo not given)	-1.9%	5.8 µM [falling, partial curve, poor fit]	–
O=[N+]([O-])c1ccc(Nc2ccccc2O)c2nonc12	9.47%	23.1 µM [falling, partial curve]	–
CC1CC(C)CN(C(=O)Cn2nnc(-c3ccc(Br)cc3)n2)C1 (stereo not given)	-2.56%	–	–
Cc1c(C)c2cccnc2c2ncccc12	-14.7%	0.461 µM [falling, partial curve]	–
Cc1cc(=O)n2nc(N3CCC(C(=O)NCc4ccccc4F)CC3)sc2n1	–	5.17 µM [rising, single point]	–
CN(C)C(=O)c1sccc1Oc1ccc(F)cc1[N+](=O)[O-]	-9.09%	–	–
COc1ccc(-c2cn[nH]c2C)cc1OC	-1.84%	29.1 µM [rising, single point]	–
COc1ccc(C(=O)N/N=C/c2ccc(OC)c(CN3CCCc4ccccc43)c2)cc1	-6.48%	0.291 µM [rising, partial curve]	–
Cc1ccccc1NC(=O)NC1(C(=O)NCC2CCCO2)CCCCC1 (stereo not given)	9.01%	–	–
CCOC(=O)N1CCN(C(=O)c2ccc(S(=O)(=O)NCc3ccco3)cc2)CC1	-2.4%	0.00461 µM [falling, full curve, poor fit]	0.0058 µM [falling, full curve, poor fit]
C=C(C)C1CC=C(C)/C(=N/NC(=O)COc2ccccc2C)C1 (stereo not given)	4.59%	2.06 µM [rising, single point]	–
CCOC(=O)C1=NNC2(c3ccc(Cl)cc3)C(=O)N(c3ccc(C)cc3)C(=O)C12 (stereo not given)	30%	0.116 µM [falling, full curve, poor fit]	–
Cc1c(NC(=O)c2ccc3ncccc3c2)c(=O)n(-c2ccccc2)n1C	18.7%	6.51 µM [falling, single point]	–
CCOc1ccc(C(=O)N2CCN(c3ccccn3)CC2)cc1OCC	-1.35%	–	–
COc1ccc(C(=O)NCC(=O)OCC(=O)N2CCc3ccccc32)cc1	2.44%	0.461 µM [falling, single point]	–
CCOC(=O)c1nc2c(ccc3ccccc32)cc1C	14.2%	–	–
NC(N)=Nc1nc(-c2ccccc2)c2cc(F)ccc2n1	41.9%	–	2.31 µM [rising, full curve]
Cn1c(=O)c2c(ncn2CC(=O)OCC(=O)NCc2ccccc2Cl)n(C)c1=O	-18.6%	0.13 µM [falling, full curve, poor fit]	–
Cc1ccc(S(=O)(=O)N(C)C)cc1NC(=O)COC(=O)CCCOc1ccccc1	9.26%	22.4 µM [rising, single point]	–

Structure (SMILES)	cell number change	AC50 [1]	AC50 [2]
CC(C)CC(=O)NC(=S)Nc1ccc(N2CCN(C(=O)c3cccs3)CC2)cc1	-28.7%	–	–
Cc1ccc(N2C(=O)c3n[nH]c(C)c3C2c2ccco2)cc1 (stereo not given)	–	–	6.51 µM [rising, single point]
NS(=O)(=O)c1ccc(NC(=O)COC(=O)c2ccco2)cc1	-2.03%	–	–
Cc1ccc(C)c(S(=O)(=O)N2CCCOC2CNC(=O)C(=O)NC2CCCCC2)c1 (stereo not given)	14%	0.058 µM [falling, full curve, poor fit]	–
COc1ccc(NC(=O)c2cc3ccc(O)cc3o/c2=N\O)cc1	-32%	14.6 µM [falling, partial curve]	16.4 µM [falling, single point]
O=C(Nc1ccc2c(c1)OCCO2)C1CCCC1	-5.84%	–	1.84 µM [rising, partial curve, poor fit]
COc1ccc(NC(=O)CCCC(=O)c2ccccc2)cc1	9.33%	–	–
CC(C(=O)OCC(=O)N(C)C1(C#N)CCCCC1)N1C(=O)c2ccccc2C1=O (stereo not given)	9.73%	1.64 µM [falling, partial curve]	–
Cc1nc(C(=O)N(C)C)nn1-c1ccc(Cl)cc1Cl	-7.16%	4.11 µM [falling, single point]	–
CC(=O)Oc1cccc(C(=O)Nc2ccccc2NC(=O)c2cccc(OC(C)=O)c2)c1	-31.9%	–	0.651 µM [falling, full curve, poor fit]
Cc1ccccc1NS(=O)(=O)c1ccc(C)c(NS(C)(=O)=O)c1C	-23.2%	1.16 µM [falling, full curve]	0.92 µM [falling, full curve, poor fit]
COC(=O)c1c(C)[nH]c(C(=O)C(C)OC(=O)C2CC2C)c1C (stereo not given)	-1.48%	29.1 µM [rising, single point]	–
CCN1/C(=C/c2ccc3cc(C)ccc3[n+]2C)Sc2ccc3sccc3c21	-10.6%	1.3 µM [falling, full curve]	2.06 µM [falling, partial curve]
CNS(=O)(=O)c1cc(OCC(N)=O)c(C)cc1Cl	-6.22%	0.146 µM [rising, full curve, poor fit]	–
O=C(Nc1ccc(Cl)c(S(=O)(=O)Nc2ccccc2Cl)c1)c1cccs1	57%	8.2 µM [rising, partial curve]	9.2 µM [rising, partial curve]
CC(=O)Nc1ccc(OC(=O)c2cccnc2)cc1	15.2%	3.66 µM [falling, single point]	–
N#C/C(=C/c1ccc(O)cc1)C(=O)NCc1ccc(Cl)cc1	30.3%	1.58 µM [falling, full curve]	0.058 µM [rising, full curve, poor fit]
COc1ccc(C(CNC(=O)c2ccc(Cl)c(NC(=O)c3cccs3)c2)N2CCCC2)cc1 (stereo not given)	101%	–	20.6 µM [rising, single point]
COc1ccccc1N1CCN(C(=O)CSc2nnc3c4ccccc4nc(Cc4ccccc4)n23)CC1	5.61%	0.0517 µM [rising, full curve, poor fit]	–
CCCN(CCC)C(=O)Cn1c2ccccc2c2nc(=O)cc(C)n21	0.659%	0.116 µM [falling, full curve, poor fit]	–

Single records, as listed above:
`COC(=O)c1c(C)[nH]c(C(=O)C(C)OC(=O)C2CC2C)c1C` (stereo not given) reads cell number change: -1.48%; AC50 [1]: 29.1 µM [rising, single point]
`CCCN(CCC)C(=O)Cn1c2ccccc2c2nc(=O)cc(C)n21` reads cell number change: 0.659%; AC50 [1]: 0.116 µM [falling, full curve, poor fit]
`CNS(=O)(=O)c1cc(OCC(N)=O)c(C)cc1Cl` reads cell number change: -6.22%; AC50 [1]: 0.146 µM [rising, full curve, poor fit]
`CCN1/C(=C/c2ccc3cc(C)ccc3[n+]2C)Sc2ccc3sccc3c21` reads cell number change: -10.6%; AC50 [1]: 1.3 µM [falling, full curve]; AC50 [2]: 2.06 µM [falling, partial curve]
